Results are given in words; binding and its absence hold for the method and conditions named. Binding seen in cells or lysates may run through a third protein. For some assays here: A result given as binding can be weak or reduced; the word gives no strength.

The chains behind the UniProt entries cited, without tags or fusion partners. Where a name states a change or a piece, a line headed by the entry shows the natural chain unless it says otherwise.
UniProt P06804: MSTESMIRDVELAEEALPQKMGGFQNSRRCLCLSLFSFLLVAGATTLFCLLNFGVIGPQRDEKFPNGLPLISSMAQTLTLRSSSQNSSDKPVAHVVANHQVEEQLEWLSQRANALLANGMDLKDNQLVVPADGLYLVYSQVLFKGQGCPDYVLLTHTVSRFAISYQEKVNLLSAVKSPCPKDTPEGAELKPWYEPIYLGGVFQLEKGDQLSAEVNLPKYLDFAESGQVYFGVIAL

The target of one assay is Flag-TNFα (UniProt P06804). The assay can be described thus: co-IP; MEFs (SENP1-WT, SENP1-KD, PIAS1-KO, SENP1-KO or reconstituted lines; with or without Nec-1s 10 μM) stimulated with Flag-TNFα (100 ng/ml) for the indicated time; lysis in 0.5% NP-40 buffer (50 mM Tris-HCl pH 7.5, 150 mM NaCl, 5% glycerol, N-ethylmaleimide); TNF-RSC precipitated with anti-Flag M2 beads overnight at 4 °C; immunoblot; only the target purified. A general note: Immunoblotting shows a protein as a band on a membrane.

Assay [1] has as its target SENP1 (ectopically expressed). Nature of the assay: co-IP; ectopically expressed proteins (HEK293T where stated); lysate in 50 mM Tris-HCl pH 7.5, 150 mM NaCl, 1% NP40, 5% glycerol; antibody overnight at 4 °C, protein A/G agarose; immunoblot.

B1: A20 (protein, UniProt Q60769 1-775)
chain: MAEQLLPQALYLSNMRKAVKIRERTPEDIFKPTNGIIYHFKTMHRYTLEMFRTCQFCPQFREIIHKALIDRSVQASLESQKKLNWCREVRKLVALKTNGDGNCLMHAACQYMWGVQDTDLVLRKALCSTLKETDTRNFKFRWQLESLKSQEFVETGLCYDTRNWNDEWDNLVKMASADTPAARSGLQYNSLEEIHIFVLSNILRRPIIVISDKMLRSLESGSNFAPLKVGGIYLPLHWPAQECYRYPIVLGYDSQHFVPLVTLKDSGPELRAVPLVNRDRGRFEDLKVHFLTDPENEMKEKLLKEYLIVMEIPVQGWDHGTTHLINAAKLDEANLPKEINLVDDYFELVQHEYKKWQENSDQARRAAHAQNPLEPSTPQLSLMDIKCETPNCPFFMSVNTQPLCHECSERRQKNQSKLPKLNSKLGPEGLPGVGLGSSNWSPEETAGGPHSAPPTAPSLFLFSETTAMKCRSPGCPFTLNVQHNGFCERCHARQINASHTADPGKCQACLQDVTRTFNGICSTCFKRTTAEPSSSLTSSIPASCHQRSKSDPSQLIQSLTPHSCHRTGNVSPSGCLSQAARTPGDRAGTSKCRKAGCMYFGTPENKGFCTLCFIEYRENKQSVTASEKAGSPAPRFQNNVPCLGRECGTLGSTMFEGYCQKCFIEAQNQRFHEARRTEEQLRSSQHRDMPRTTQVASRLKCARASCKNILACRSEELCMECQHLSQRVGSVAHRGEPTPEEPPKQRCRAPACDHFGNAKCNGYCNECYQFKQMYG
For the molecule B1, the binding entry in the assay with Flag-TNFα is reported as “binds”.

B2: A20 (tested against SENP1) (protein, UniProt Q60769 1-775)
chain: B1 chain
As to B2, in assay [1], the binding entry is “no binding”.

(Values after article PMC9681887.)
